According to the supplement of paper PMC8166895:
Counter-ions that a name gives are not always drawn. Some of the results follow. Most values lie at the level of the controls, where differences are scatter.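 A single-replicate pilot screen of approved drugs and clinical or known-target compounds measured melting temperature via differential scanning fluorimetry. Top stabilizing hits raised the melting point by 2 °C or more; negative shifts indicate destabilization.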

Each molecule was assayed on SARS-CoV-2 main protease (Mpro, nsp5) (assay: thermal shift ΔTm of Mpro relative to plate average Tm; higher = stronger thermal stabilization of Mpro (binding)). Conditions: 10 µM; protein concentration 1 µM.

| Compound | thermal shift ΔTm of Mpro |
| --- | --- |
| CN[C@H]1CN(c2ccc3c(=O)c(C(=O)O)cn(-c4nccs4)c3n2)C[C@@H]1OC [Voreloxin (SNS-595)] | -0.238 °C |
| COc1cc(C(=O)NS(=O)(=O)c2ccccc2C)ccc1Cc1cn(C)c2ccc(NC(=O)OC3CCCC3)cc12 [Zafirlukast] | -0.115 °C |
| Cl[C@H]1[C@H](Cl)[C@@H](Cl)[C@@H](Cl)[C@H](Cl)[C@H]1Cl [Lindane] | 0.216 °C |
| S=C1SCN(Cc2ccccc2)CN1Cc1ccccc1 [Sulbentine] | 0.058 °C |
| CCc1cncnc1N1CCN(Cc2nc3ccc(C(F)(F)F)cc3[nH]2)CC1 | -0.219 °C |
| CC1(C)C(C=C(Cl)c2ccc(Cl)cc2)C1C(=O)OC(C#N)c1ccc(F)c(Oc2ccccc2)c1 (configuration not stated) [Flumethrin] | 0.00977 °C |
| C/C=C(/C)C(=O)O[C@@H]1[C@H](OC(=O)CC(C)C)c2c(ccc3ccc(=O)oc23)OC1(C)C [Praeruptorin C] | -0.167 °C |
| CNC(=O)c1ccccc1Nc1nc(Nc2ccc3c(c2OC)CCC[C@H](N2CCN(CCO)CC2)C3)ncc1Cl | 0.0505 °C |
| CC(=O)OCC(=O)[C@@]12N=C(C)O[C@@H]1C[C@H]1[C@@H]3CCC4=CC(=O)C=C[C@]4(C)[C@H]3[C@@H](O)C[C@@]12C [Deflazacort] | 0.0663 °C |
| OCc1cc(C(O)CNCCCCCCOCCCCc2ccccc2)ccc1O (configuration not stated) [Salmeterol Xinafoate] | -0.127 °C |
| C=C1C[C@@H]2[C@H](CC[C@]3(C)C(=O)CC[C@@H]23)[C@@]2(C)C=CC(=O)C=C12 [Exemestane] | 0.186 °C |
| Cc1nc2n(c(=O)c1CCN1CCC(c3noc4cc(F)ccc34)CC1)CCCC2 [Risperidone] | -0.0287 °C |
| CNCCC(Oc1ccc(C(F)(F)F)cc1)c1ccccc1 (configuration not stated) [Fluoxetine HCl] | 0.54 °C |
| CNCCC(Oc1ccc(C(F)(F)F)cc1)c1ccccc1 (configuration not stated) [Fluoxetine] | 0.154 °C |
| C=C1c2c(Cl)ccc(O)c2C(O)=C2C(=O)[C@]3(O)C(O)=C(C(N)=O)C(=O)[C@@H](N(C)C)[C@@H]3[C@@H](O)[C@H]12.O=C(O)c1cc(S(=O)(=O)O)ccc1O [Meclocycline sulfosalicylate salt] | 0.0721 °C |
| C[C@@H](CN1CC(=O)NC(=O)C1)N1CC(=O)NC(=O)C1 [Dexrazoxane HCl (ICRF-187, ADR-529)] | 0.15 °C |
| CC(=O)Nc1ccc(CC(=O)O)cc1 [Actarit] | 0.331 °C |
| Nc1c(Br)cc(Br)cc1C=O [BroMhexine IMpurity B] | 0.459 °C |
| CC(=O)N[C@H]1[C@H]([C@H](O)[C@H](O)CO)OC(C(=O)O)=C[C@@H]1NC(=N)N [Zanamivir] | 0.148 °C |
| N#Cc1c(-c2ccccc2)cc(-c2cc(Br)ccc2O)[nH]c1=O | 0.106 °C |
| CCC(=O)O[C@]1(C(=O)CCl)[C@@H](C)C[C@H]2[C@@H]3C[C@H](F)C4=CC(=O)C=C[C@]4(C)[C@@]3(F)[C@@H](O)C[C@@]21C [Halobetasol Propionate] | -0.156 °C |
| Cc1c(C(=O)NN2CCOCC2)nn(-c2ccc(Cl)cc2Cl)c1-c1ccc(I)cc1 | -0.485 °C |
| CCN1CC(CCN2CCOCC2)C(c2ccccc2)(c2ccccc2)C1=O (configuration not stated) [Doxapram HCl] | 0.0183 °C |
| Cc1cnc(CNC(=O)c2c(=O)c3ccc(N4CCCN(C)CC4)nc3n3c2sc2ccccc23)cn1 | 0.342 °C |

| Compound | thermal shift ΔTm of Mpro |
| --- | --- |
| NC(=O)N1c2ccccc2CCc2ccccc21 [10,11-Dihydrocarbamazepine] | -0.108 °C |
| CCCCNC(=O)NS(=O)(=O)c1ccc(C)cc1 [Tolbutamide] | -0.00493 °C |
| C[C@@H]1O[C@@H](O[C@H]2[C@H](Oc3cc(O)c(C(=O)CCc4ccc(O)cc4)c(O)c3)O[C@H](CO)[C@@H](O)[C@@H]2O)[C@H](O)[C@H](O)[C@H]1O [Naringin Dihydrochalcone] | 0.00249 °C |
| O=C(O)c1cc(-c2ccc(F)cc2F)ccc1O [Diflunisal] | -0.279 °C |
| CCOC(=O)COc1ccc(/C=C2/SC(=S)NC2=O)cc1OC | -0.0346 °C |
| O=C(Nc1c(Cl)cncc1Cl)c1ccc(OC(F)F)c(OCC2CC2)c1 [Roflumilast] | -0.0915 °C |
| CCOC(=O)OC(C)OC1=C(C(=O)Nc2ccccn2)N(C)S(=O)(=O)c2ccccc21 (configuration not stated) [Ampiroxicam] | 0.113 °C |
| Cc1cccc(-c2[nH]c(CNc3ccccc3F)nc2-c2ccc3ncnn3c2)n1 | 0.0583 °C |
| CC(=O)[C@H]1CC[C@H]2[C@@H]3C[C@H](C)C4=CC(=O)CC[C@]4(C)[C@H]3[C@@H](O)C[C@]12C [Medrysone] | -0.146 °C |
| C=CC(=O)N1CC/C(=C\c2ccc(F)c([N+](=O)[O-])c2)C(=O)/C(=C/c2ccc(F)c([N+](=O)[O-])c2)C1 | -0.0818 °C |
| CCCS(=O)(=O)Nc1ccc(F)c(C(=O)c2c[nH]c3ncc(-c4ccc(Cl)cc4)cc23)c1F [Vemurafenib (PLX4032, RG7204)] | 0.465 °C |
| CCOc1ccccc1OCCN[C@H](C)Cc1ccc(OC)c(S(N)(=O)=O)c1 [Tamsulosin hydrochloride] | 0.162 °C |
| O=S(=O)(O)CCS [Mesna] | -0.11 °C |
| CN(C)C1CCN(C(=O)c2ccc(NC(=O)Nc3ccc(-c4nc(N5CCOCC5)nc(N5CCOCC5)n4)cc3)cc2)CC1 [Gedatolisib] | 0.151 °C |
| Nc1nc(=O)c2c([nH]1)NC[C@@H](CNc1ccc(C(=O)N[C@@H](CCC(=O)O)C(=O)O)cc1)N2C=O [Folinic Acid Calcium Salt Pentahydrate] | 0.169 °C |
| COc1ccc2cc([C@@H](C)C(=O)O)ccc2c1 [(R)-Naproxen] | 0.1 °C |
| CC(C)NCC(O)COc1cccc2ccccc12 (configuration not stated) [Propranolol HCl] | 0.19 °C |
| COc1ccc(C2C(C#N)=C(N)OC3=C2C(=O)CC(c2cccc4ccccc24)C3)cc1 (configuration not stated) | -0.0995 °C |
| NC(=S)c1ccncc1 [Thioisonicotinamide] | 0.211 °C |
| Cc1nc(NC(=O)N2CCC[C@H]2C(N)=O)sc1-c1ccnc(C(C)(C)C(F)(F)F)c1 | -0.146 °C |
| CCCCc1nc(C)c(CC(=S)N(C)C)c(=O)n1Cc1ccc(-c2ccccc2-c2nnn[nH]2)cc1 [Fimasartan] | 0.0719 °C |
| Cc1cc(C)c(NC(=O)C2CC3CCC2C3)c(C)c1 (configuration not stated) | -0.0435 °C |
| Cc1[nH]c(/C=C2\C(=O)Nc3ccc(S(=O)(=O)N(C)c4cccc(Cl)c4)cc32)c(C)c1C(=O)N1CCN(C)CC1 | 0.185 °C |

Taken from the entries so far for reference:

| Compound | thermal shift ΔTm of Mpro |
| --- | --- |
| Cc1nc(NC(=O)N2CCC[C@H]2C(N)=O)sc1-c1ccnc(C(C)(C)C(F)(F)F)c1 | -0.146 °C |
| CCCCc1nc(C)c(CC(=S)N(C)C)c(=O)n1Cc1ccc(-c2ccccc2-c2nnn[nH]2)cc1 [Fimasartan] | 0.0719 °C |
| Cc1cc(C)c(NC(=O)C2CC3CCC2C3)c(C)c1 (configuration not stated) | -0.0435 °C |
